Measurements reported in PubChem BioAssay AID1053208 (Peter MacCallum Cancer Centre, 2014)

- Aim: 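Genes whose silencing cuts survival of bone tumour cells only with doxorubicin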 (primary screen)
- Cells: mouse osteosarcoma cells, early-passage culture from an engineered mouse model of fibroblastic bone tumour
- Reagents: siRNA pool against mouse genes, 40 nM
- Time to read-out: about 120 h (48 h before drug, then 72 h with drug)
- Conditions: doxorubicin 100 nM for 72 h, roughly 30-40% inhibitory dose
- Measured: 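Luminescent ATP signal taken as viability with or without 100 nM doxorubicin for 72 h; mean of two wells set against non-targeting siRNA and turned into robust z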
- Scale: viability z-score with doxorubicin: higher = more viable cells under doxorubicin; viability z-score without drug: higher = more viable cells with knock-down alone
- Rule for the call: 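a pool counts as active when its viability z-score with doxorubicin is -2 or below and its z-score without drug lies between -2 and 2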
This is an unselected part of about 17,000 reagents. 788 of all reagents (4.7%) were called active. 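Calls rest on z-score classes alone; an extra cut-off of viability at most 70% of control was not applied to them.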 Unmarked entries are inactive. Further read-outs or replicates are left out here.

Against Gspt2 the deposit lists combined z-score class no change with or without drug; viability z-score with doxorubicin -1.12; viability z-score without drug -0.34.
With knock-down of Dnajc10, the screen gave combined z-score class no change with or without drug; viability z-score with doxorubicin 1.12; viability z-score without drug 1.69.
4930556L07Rik showed combined z-score class no change with or without drug; viability z-score with doxorubicin 0.45; viability z-score without drug -0.67.
For Uchl5 the deposit lists combined z-score class no change with or without drug; viability z-score with doxorubicin 1.12; viability z-score without drug 1.85.
Silencing of Cpox came out at: combined z-score class no change with or without drug; viability z-score with doxorubicin 0.11; viability z-score without drug 1.69.
Knock-down of Wdr77 resulted in: combined z-score class no change with or without drug; viability z-score with doxorubicin -0.79; viability z-score without drug -0.51.
Knock-down of Qpctl came out at: combined z-score class high cell count with doxorubicin only; viability z-score with doxorubicin 2.25; viability z-score without drug 1.52.
With knock-down of Slc26a10 the results were combined z-score class low cell count with doxorubicin only (active); viability z-score with doxorubicin -2.7; viability z-score without drug -1.52.
With knock-down of C130050O18Rik, the record shows combined z-score class no change with or without drug; viability z-score with doxorubicin -1.8; viability z-score without drug 0.17.
Vnn1 showed combined z-score class no change with or without drug; viability z-score with doxorubicin 0.79; viability z-score without drug 0.84.
Knock-down of Cdh22 came out at: combined z-score class no change with or without drug; viability z-score with doxorubicin -1.57; viability z-score without drug -1.18.
Moxd2 gave combined z-score class no change with or without drug; viability z-score with doxorubicin 0.22; viability z-score without drug 0.67.
Cblif gave combined z-score class no change with or without drug; viability z-score with doxorubicin -0.67; viability z-score without drug 0.67.
Vav3 showed combined z-score class no change with or without drug; viability z-score with doxorubicin -0.45; viability z-score without drug -0.84.
Against St8sia4 the deposit lists combined z-score class no change with or without drug; viability z-score with doxorubicin -0.67; viability z-score without drug -1.18.
Depletion of Oas1e gave: combined z-score class no change with or without drug; viability z-score with doxorubicin 1.24; viability z-score without drug -0.17.
Silencing of Adam7 gave: combined z-score class no change with or without drug; viability z-score with doxorubicin -0.22; viability z-score without drug 1.85.
Arhgef26 gave combined z-score class no change with or without drug; viability z-score with doxorubicin -1.35; viability z-score without drug -1.18.
Silencing of Itgav gave: combined z-score class low cell count without drug only; viability z-score with doxorubicin -1.8; viability z-score without drug -2.87.
Silencing of Mylk3 gave: combined z-score class no change with or without drug; viability z-score with doxorubicin -1.35; viability z-score without drug -1.52.
Hsp90ab1 showed combined z-score class no change with or without drug; viability z-score with doxorubicin -1.12; viability z-score without drug -0.17.
With knock-down of Dbh the results were combined z-score class no change with or without drug; viability z-score with doxorubicin 0.56; viability z-score without drug 0.17.
With knock-down of Or4c115, the screen gave combined z-score class no change with or without drug; viability z-score with doxorubicin 1.35; viability z-score without drug 0.17.
After knock-down of Tlnrd1 the results were combined z-score class no change with or without drug; viability z-score with doxorubicin 0.45; viability z-score without drug 0.17.
With knock-down of Prl2c4, the record shows combined z-score class no change with or without drug; viability z-score with doxorubicin 1.35; viability z-score without drug -0.17.
For Alg1, the entry reads combined z-score class no change with or without drug; viability z-score with doxorubicin -0.56; viability z-score without drug -0.84.
Midn gave combined z-score class no change with or without drug; viability z-score with doxorubicin 1.12; viability z-score without drug 1.85.
With knock-down of Rangrf the results were combined z-score class high cell count without drug only; viability z-score with doxorubicin 1.69; viability z-score without drug 2.19.

A stretch from the list above:
Oas1e — combined z-score class: no change with or without drug; viability z-score with doxorubicin: 1.24; viability z-score without drug: -0.17
Adam7 — combined z-score class: no change with or without drug; viability z-score with doxorubicin: -0.22; viability z-score without drug: 1.85
